# The supplement of paper PMC8728848
# Some of the results follow.
# Tests used:
# Test in all cases: glycan array binding signal (z-score within array); higher = stronger binding
# Details in all cases: glycan notation: IUPAC condensed, linker removed
# [1] = molecular target: GlcNAc(b1-2)Gal(b1-3)GlcNAc
# Procedure, shortened: (§1)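 Glycan array data came from 3228 arrays in the Consortium for Functional Glycomics database, and only arrays with an available protein sequence were kept. Glycan names were put into IUPAC-condensed notation, and columns mapping to the same glycan were averaged. The binding signal is a within-array Z-score, averaged across arrays of one protein sequence run at different concentrations or buffers and across linkers. A negative Z-score can be read as non-binding.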
# [2] = molecular target: GlcNAc(b1-2)Man(a1-3)[GlcNAc(b1-2)Man(a1-6)]Man(b1-4)GlcNAc(b1-4)GlcNAc
# Procedure, shortened: as §1
# [3] = molecular target: GlcNAc(b1-3)Gal
# Procedure, shortened: as §1
# [4] = molecular target: GlcNAc(b1-3)Gal(b1-3)GalNAc
# Procedure, shortened: as §1
# [5] = molecular target: GlcNAc(b1-3)Gal(b1-4)Glc
# Procedure, shortened: as §1
# [6] = molecular target: GlcNAc(b1-3)Gal(b1-4)GlcNAc
# Procedure, shortened: as §1
# [7] = molecular target: GlcNAc(b1-3)Gal(b1-4)GlcNAc(b1-3)Gal(b1-4)GlcNAc
# Procedure, shortened: as §1
# [8] = molecular target: GlcNAc(b1-3)GalNAc
# Procedure, shortened: as §1
# [9] = molecular target: GlcNAc(b1-3)[GlcNAc(b1-4)][GlcNAc(b1-6)]GlcNAc
# Procedure, shortened: as §1
# [10] = molecular target: GlcNAc(b1-3)[GlcNAc(b1-6)]Gal(b1-4)GlcNAc
# Procedure, shortened: as §1
# [11] = molecular target: GlcNAc(b1-3)[GlcNAc(b1-6)]GalNAc
# Procedure, shortened: as §1
# [12] = molecular target: GlcNAc(b1-3)[GlcNAc(b1-6)]GlcNAc
# Procedure, shortened: as §1
# [13] = molecular target: GlcNAc(b1-3)[GlcNAc(b1-6)]GlcNAc(b1-4)GlcNAc
# Procedure, shortened: as §1
# [14] = molecular target: GlcNAc(b1-4)Gal(b1-4)GlcNAc
# Procedure, shortened: as §1
# [15] = molecular target: GlcNAc(b1-4)GlcNAc(b1-4)GlcNAc
# Procedure, shortened: as §1
# [16] = molecular target: GlcNAc(b1-4)GlcNAc(b1-4)GlcNAc(b1-4)GlcNAc(b1-4)GlcNAc
# Procedure, shortened: as §1
# [17] = molecular target: GlcNAc(b1-4)GlcNAc(b1-4)GlcNAc(b1-4)GlcNAc(b1-4)GlcNAc(b1-4)GlcNAc
# Procedure, shortened: as §1
# [18] = molecular target: GlcNAc(b1-4)[GlcNAc(b1-6)]GalNAc
# Procedure, shortened: as §1
# [19] = molecular target: GlcNAc(b1-6)Gal(b1-4)GlcNAc
# Procedure, shortened: as §1
# [20] = molecular target: GlcNAc(b1-6)GalNAc
# Procedure, shortened: as §1
# [21] = molecular target: Kdn(a2-3)Gal(b1-3)GlcNAc
# Procedure, shortened: as §1
# [22] = molecular target: Kdn(a2-3)Gal(b1-4)GlcNAc
# Procedure, shortened: as §1
# [23] = molecular target: Man(a1-2)Man(a1-2)Man(a1-3)Man
# Procedure, shortened: as §1
# [24] = molecular target: Man(a1-2)Man(a1-2)Man(a1-3)[Man(a1-2)Man(a1-3)[Man(a1-2)Man(a1-6)]Man(a1-6)]Man(b1-4)GlcNAc(b1-4)GlcNAc
# Procedure, shortened: as §1
# [25] = molecular target: Man(a1-2)Man(a1-2)Man(a1-3)[Man(a1-2)Man(a1-6)[Man(a1-3)]Man(a1-6)]Man(b1-4)GlcNAc(b1-4)GlcNAc
# Procedure, shortened: as §1
# [26] = molecular target: Man(a1-2)Man(a1-2)Man(a1-6)[Man(a1-3)]Man
# Procedure, shortened: as §1
# [27] = molecular target: Man(a1-2)Man(a1-3)Man
# Procedure, shortened: as §1
# [28] = molecular target: Man(a1-2)Man(a1-3)[Man(a1-2)Man(a1-6)]Man
# Procedure, shortened: as §1
# [29] = molecular target: Man(a1-2)Man(a1-3)[Man(a1-2)Man(a1-6)]Man(a1-6)[Man(a1-2)Man(a1-2)Man(a1-3)]Man(b1-4)GlcNAc(b1-4)GlcNAc
# Procedure, shortened: as §1
# [30] = molecular target: Man(a1-2)Man(a1-3)[Man(a1-2)Man(a1-6)]Man(a1-6)[Man(a1-3)[Man(a1-6)]Man(a1-6)]Man(b1-4)GlcNAc(b1-4)GlcNAc
# Procedure, shortened: as §1
# [31] = molecular target: Man(a1-2)Man(a1-3)[Man(a1-3)[Man(a1-6)]Man(a1-6)]Man(b1-4)GlcNAc(b1-4)GlcNAc
# Procedure, shortened: as §1
# [32] = molecular target: Man(a1-2)Man(a1-3)[Man(a1-6)]Man(a1-6)[Man(a1-2)Man(a1-3)]Man(b1-4)GlcNAc(b1-4)GlcNAc
# Procedure, shortened: as §1
# [33] = molecular target: Man(a1-2)Man(a1-6)[Man(a1-3)]Man(a1-6)[Man(a1-2)Man(a1-2)Man(a1-3)]Man(b1-4)GlcNAc(b1-4)GlcNAc
# Procedure, shortened: as §1
# [34] = molecular target: Man(a1-3)[Man(a1-6)]Man
# Procedure, shortened: as §1
# [35] = molecular target: Man(a1-3)[Man(a1-6)]Man(a1-6)[Man(a1-3)]Man(b1-4)GlcNAc(b1-4)GlcNAc
# Procedure, shortened: as §1
# [36] = molecular target: Man(a1-3)[Man(a1-6)]Man(b1-4)GlcNAc(b1-4)GlcNAc
# Procedure, shortened: as §1
# [37] = molecular target: Man(b1-4)GlcNAc
# Procedure, shortened: as §1
binder,measurement,setting,value
"TIM-1 (Mus musculus), AAL35774 (protein) MNQIQVFISGLILLLPGAVDSYVEVKGVVGHPVTLPCTYSTYRGITTTCWGRGQCPSSACQNTLIWTNGHRVTYQKSSRYNLKGHISEGDVSLTIENSVESDSGLYCCRVEIPGWFNDQKVTFSLQVKPEIPTRPPTRPTTTRPTATGRPTTISTRSTHVPTSIRVSTSTPPTSTHTWTHKPEPTTFCPHETTAEVTGIPSHTPTDWNGTVTSSGDTWSNHTEAIPPGKPQKNPTKGFYVGICIAALLLLLLVSTVAITRYILMKRKSASLSVVAFRVSKIEALQNAAVVHSRAEDNIYIVEDRP",glycan array binding signal (z-score),[1],-0.487
same,glycan array binding signal (z-score),[2],1.17
same,glycan array binding signal (z-score),[3],-0.449
same,glycan array binding signal (z-score),[4],0.123
same,glycan array binding signal (z-score),[5],-0.033
same,glycan array binding signal (z-score),[6],0.064
same,glycan array binding signal (z-score),[7],-0.327
same,glycan array binding signal (z-score),[8],-0.514
same,glycan array binding signal (z-score),[9],-0.609
same,glycan array binding signal (z-score),[10],-0.387
same,glycan array binding signal (z-score),[11],-0.3
same,glycan array binding signal (z-score),[12],-0.61
same,glycan array binding signal (z-score),[13],0.029
same,glycan array binding signal (z-score),[14],-0.235
same,glycan array binding signal (z-score),[15],-0.379
same,glycan array binding signal (z-score),[16],1.29
same,glycan array binding signal (z-score),[17],-0.27
same,glycan array binding signal (z-score),[18],-0.404
same,glycan array binding signal (z-score),[19],-0.402
same,glycan array binding signal (z-score),[20],-0.307
same,glycan array binding signal (z-score),[21],-0.558
same,glycan array binding signal (z-score),[22],1.26
same,glycan array binding signal (z-score),[23],0.548
same,glycan array binding signal (z-score),[24],1.22
same,glycan array binding signal (z-score),[25],0.011
same,glycan array binding signal (z-score),[26],-0.193
same,glycan array binding signal (z-score),[27],-0.049
same,glycan array binding signal (z-score),[28],-0.02
same,glycan array binding signal (z-score),[29],-0.086
same,glycan array binding signal (z-score),[30],-0.455
same,glycan array binding signal (z-score),[31],0.119
same,glycan array binding signal (z-score),[32],0.298
same,glycan array binding signal (z-score),[33],-0.215
same,glycan array binding signal (z-score),[34],0.221
same,glycan array binding signal (z-score),[35],0.141
same,glycan array binding signal (z-score),[36],0.07
same,glycan array binding signal (z-score),[37],0.312

# Some of the entries so far, as tab-separated lines:
binder	measurement	setting	value
TIM-1 (Mus musculus), AAL35774 (protein) MNQIQVFISGLILLLPGAVDSYVEVKGVVGHPVTLPCTYSTYRGITTTCWGRGQCPSSACQNTLIWTNGHRVTYQKSSRYNLKGHISEGDVSLTIENSVESDSGLYCCRVEIPGWFNDQKVTFSLQVKPEIPTRPPTRPTTTRPTATGRPTTISTRSTHVPTSIRVSTSTPPTSTHTWTHKPEPTTFCPHETTAEVTGIPSHTPTDWNGTVTSSGDTWSNHTEAIPPGKPQKNPTKGFYVGICIAALLLLLLVSTVAITRYILMKRKSASLSVVAFRVSKIEALQNAAVVHSRAEDNIYIVEDRP	glycan array binding signal (z-score)	[1]	-0.487
same	glycan array binding signal (z-score)	[6]	0.064
